## Percent effect of library compounds

Protein sequences, listed by entry. Tags and fused reporters are not part of them.
UniProt P9WPC5, whole entry: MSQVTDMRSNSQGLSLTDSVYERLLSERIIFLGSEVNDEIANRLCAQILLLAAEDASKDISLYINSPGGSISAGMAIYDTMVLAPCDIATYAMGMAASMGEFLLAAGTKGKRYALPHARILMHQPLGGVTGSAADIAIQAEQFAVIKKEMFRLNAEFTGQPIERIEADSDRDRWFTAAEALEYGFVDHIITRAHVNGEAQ
UniProt P9WPC3, whole entry partner: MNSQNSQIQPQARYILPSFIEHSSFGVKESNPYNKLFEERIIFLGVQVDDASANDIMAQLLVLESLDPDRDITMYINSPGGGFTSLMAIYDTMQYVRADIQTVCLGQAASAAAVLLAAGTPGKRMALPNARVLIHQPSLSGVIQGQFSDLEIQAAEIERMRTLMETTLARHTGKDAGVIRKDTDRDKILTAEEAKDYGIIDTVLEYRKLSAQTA
UniProt P9WFT3, whole entry: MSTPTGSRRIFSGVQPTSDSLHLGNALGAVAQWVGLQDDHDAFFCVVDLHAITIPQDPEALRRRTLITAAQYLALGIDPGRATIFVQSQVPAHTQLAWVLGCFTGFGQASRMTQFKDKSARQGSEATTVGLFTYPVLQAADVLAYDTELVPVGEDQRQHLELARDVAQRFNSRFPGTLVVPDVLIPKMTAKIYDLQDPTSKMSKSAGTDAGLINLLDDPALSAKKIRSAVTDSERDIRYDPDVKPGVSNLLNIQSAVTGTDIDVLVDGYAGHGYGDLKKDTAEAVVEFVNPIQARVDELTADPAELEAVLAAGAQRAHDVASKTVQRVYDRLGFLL
UniProt P9WNZ1, whole entry: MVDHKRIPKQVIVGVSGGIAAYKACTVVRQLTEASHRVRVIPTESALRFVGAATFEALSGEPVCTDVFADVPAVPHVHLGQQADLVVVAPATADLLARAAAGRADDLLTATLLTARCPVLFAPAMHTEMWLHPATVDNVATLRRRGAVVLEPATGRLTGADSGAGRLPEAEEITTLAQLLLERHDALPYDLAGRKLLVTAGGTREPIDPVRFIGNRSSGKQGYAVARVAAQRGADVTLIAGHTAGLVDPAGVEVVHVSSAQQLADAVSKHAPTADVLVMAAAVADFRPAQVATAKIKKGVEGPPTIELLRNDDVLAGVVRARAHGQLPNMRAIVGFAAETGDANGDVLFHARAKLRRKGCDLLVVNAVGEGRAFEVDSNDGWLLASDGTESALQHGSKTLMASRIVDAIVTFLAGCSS

Source: ChEMBL document CHEMBL3988442, “University of Dundee, Small-Polar-MMV Screening Library” (2021).

Each number is a percent effect as filed.
The record does not define 0% and 100%; most values in the screen are far below 50% and negative numbers occur (in some assays of this library far below -100).
This is an unselected part of the compounds tested.
A dash means the value is not listed here; it may have been measured.

A: 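ClpP1P2, Mycobacterium tuberculosis (UniProt P9WPC5 and UniProt P9WPC3). Protease assay of ClpP1P2, read by the AMC dye that it sets free. Compounds at 50 µM. Direction is inferred from only a few compounds that gave an IC50; most scored high, so higher reads as stronger inhibition. Most other retested compounds had strongly negative values. Of about 69,000 compounds tested this way, about 10 (0.015%) reached 50% or more in at least one test.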
B: 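Assay of Toxoplasma gondii numbers, read through their beta-galactosidase reporter with a colour substrate. Concentration: 10 µM. The record gives no direction; the compounds picked for IC50 retests had high values, so higher reads as fewer parasites. Size under these conditions: about 67,000 compounds, about 260 of them at 50% or above in at least one test.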
C: 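Enzyme assay of tryptophanyl-tRNA synthetase; the read-out is not stated. Target: Tryptophan-tRNA ligase, Mycobacterium tuberculosis (UniProt P9WFT3). Tested at 10 µM. Direction is not recorded; retested compounds ran higher, which suggests that high means inhibition. Of about 65,000 compounds tested this way, about 64 (0.098%) reached 50% or more in at least one test.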
D: 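Coenzyme A biosynthesis protein CoaBC, Mycobacterium tuberculosis (UniProt P9WNZ1). Enzyme assay of CoaBC with a phosphate dye (Biomol Green) read at 650 nm. Concentration: 30 µM. Higher reads as stronger inhibition, judged from the few compounds that gave an IC50. Most strong results did not repeat in a second test. Size under these conditions: about 67,000 compounds, about 40 of them at 50% or above in at least one test.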

| # | compound | A | B | C | D |
|---|---|---|---|---|---|
| 1 | `CCn1nc(C)c2c1cnn2CC(=O)Nc1ccc(OC)cc1C` | 15.79 | -7.189 | 0.8639 | 0.7282 |
| 2 | `Cc1cnc(N2CC[C@@H]3CN(Cc4ccncc4)CCO[C@@H]3C2)nc1` | 15.86 | - | 9.017 | -20.98 |
| 3 | `Cc1csc([C@H]2C[C@H]3CN(Cc4cc(C)on4)CC[C@@H]3O2)n1` | -1.219 | - | - | -0.7426 |
| 4 | `O=C(c1cc2c(s1)CCC2)N1CCCC1c1noc(C2CC2)n1` (stereo unspecified) | -14.66 | 7.371 | -8.56 | 5.102 |
| 5 | `CCCc1noc(CCC(=O)N2CCCC2c2ccc(OC)cc2)n1` (stereo unspecified) | -17.59 | -2.84 | -7.335 | 3.675 |
| 6 | `C/C=C(\C)CN1C[C@H](NC(=O)CN2CCCC2=O)[C@@H](c2ccc(C)o2)C1` | -4.117 | - | 0.1608 | -2.066 |
| 7 | `COCC(=O)Nc1ccc(Oc2ccsc2C(=O)O)cc1` | -6.958 | -7.733 | -1.573 | 2.532 |
| 8 | `Cc1ccc(S(C)(=O)=O)cc1C(=O)NS(=O)(=O)c1ccc(Cl)cc1` | -8.783 | -7.99 | -2.861 | 1.86 |
| 9 | `CCOCC(=O)NCc1cc(C2CC2)n(C2CCCC2)n1` | -9.806 | 1.158 | -3.419 | 0.2114 |
| 10 | `O=C(NCC1CCN(CCc2ccccc2)C1)c1cc(Cl)c[nH]1` (stereo unspecified) | -9.703 | -0.7318 | -3.888 | 4.369 |
| 11 | `COCCN(CCOC)c1nc2c(s1)c(C)nn2C` | -9.149 | -35.51 | -4.43 | 8.273 |
| 12 | `CC(=O)c1cccc(NC(=O)NCCOCC2CC2)c1` | -0.7554 | 0.5882 | -3.216 | -3.733 |
| 13 | `COc1ccc(C(=O)N2C[C@@H](CN3CCCC3)[C@@H](CO)C2)c(C)c1` | 6.608 | 8.621 | 2.673 | 8.333 |
| 14 | `NC(=O)C1CCN(C(=O)NCc2cccnc2OCC(F)(F)F)C1` (stereo unspecified) | -6.42 | -5.456 | 4.427 | 5.612 |
| 15 | `O=C(Cc1cccs1)N1CCOC(c2cccc(O)c2)C1` (stereo unspecified) | 2.781 | 2.157 | -4.339 | - |
| 16 | `O=C(CCc1ccsc1)Nc1cnccc1O` | 11.29 | -8.862 | 2.741 | 11.57 |
| 17 | `O=C(NCCc1c[nH]cn1)c1ccc(S(=O)(=O)NC2CCOC2)cc1` (stereo unspecified) | -4.802 | 31.36 | -4.515 | -6.34 |
| 18 | `FC(F)(F)C1CN(Cc2cnc3c(-c4ccccc4)cnn3c2)CCO1` (stereo unspecified) | -3.291 | -4.282 | 3.024 | 7.19 |
| 19 | `O=c1cc(CN2CCCC2)nc2n1CCCN(CC1CC1)C2` | 12.11 | -6.221 | - | -0.3713 |
| 20 | `Cc1ccc(N2C[C@@H]3CN(Cc4ccoc4)CCO[C@@H]3C2)nn1` | 9.26 | - | 4.575 | -30.94 |
| 21 | `COCCN1CCc2ncc(CN(C)C)n2CC1` | -0.5342 | 1.543 | 3.391 | - |
| 22 | `Cc1noc(C)c1S(=O)(=O)N1CCc2nc(C3CCNCC3)ncc2C1.Cl` | - | -0.1459 | - | - |
| 23 | `C1CC(CN2CCc3c(nnn3CC3CC3)C2COCC2CC2)C1` (stereo unspecified) | -3.979 | - | -1.395 | 5.042 |
| 24 | `COc1ccc2cccc(CC(=O)NCCCc3n[nH]c(C)n3)c2c1` | -5.393 | -1.712 | 0 | - |
| 25 | `CC(C)c1nc(CN2CCN(C(C)c3nc(C4CC4)no3)CC2)no1` (stereo unspecified) | 4.694 | -5.456 | -0.2924 | 3.394 |
| 26 | `CC1CCN(C(=O)c2cnc(CC3CCCN(C)C3)cn2)CC1` (stereo unspecified) | -6.666 | 3.036 | - | 1.611 |
| 27 | `CCc1cc(NCCc2cc(F)cc(F)c2)n2nccc2n1` | -8.159 | 6.681 | 0.4079 | 1.646 |
| 28 | `CC(C)c1[nH]c2ncccc2c1CN1CCN(S(=O)(=O)N(C)C)CC1` | 9.371 | -6.268 | -7.959 | 8.466 |
| 29 | `O=C(CCn1ccccc1=O)Nc1ccc(I)cc1` | 8.003 | 0.05316 | -0.3353 | -7.048 |
| 30 | `Cc1ccc(CN2CCn3c(CN(C)C(C)C)cnc3C2)s1` | 14.24 | - | -1.696 | 5.929 |
| 31 | `CC(C)c1nn(C)c(N(C)C)c1CNCc1ccc(CO)c(F)c1` | -7.944 | -16.44 | -5.716 | 1.173 |
| 32 | `Cc1nc(CN2CCOCC3(CCN(c4cccnc4)CC3)C2)cs1.O=C(O)C(F)(F)F.O=C(O)C(F)(F)F` | - | -9.094 | - | - |
| 33 | `Cc1c[nH]c(CN2CCCCC2CCc2cccc(O)c2)c(C)c1=O` (stereo unspecified) | -6.905 | -52.08 | 5.302 | 5.651 |
| 34 | `N#CC(NC(=O)CC1CCSCC1)c1cnn(-c2ccccc2)c1` (stereo unspecified) | -10.1 | -13.17 | -1.154 | 0 |
| 35 | `CC(C)c1nccn1C1CCCN(C(=O)c2ccc(=O)n(C)n2)C1` (stereo unspecified) | -2.572 | 4.234 | -3.186 | 8.46 |
| 36 | `NC(=O)CSCC(=O)N1CCc2cc(Cl)cc(Cl)c2C1` | -5.741 | 12.83 | 2.237 | 5 |
| 37 | `COCc1cc(NCCCSc2nnc(C)s2)ncn1` | -15.41 | 10.47 | 4.49 | 5.484 |
| 38 | `Cc1noc(C)c1CN1CCN(Cc2ccncc2)c2ncccc2C1.O=C(O)C(F)(F)F.O=C(O)C(F)(F)F.O=C(O)C(F)(F)F` | - | -2.052 | - | - |
| 39 | `O=C(CCCNC(=O)c1cnccn1)Nc1ncc[nH]1` | -8 | -8.809 | 5.532 | 1.01 |
| 40 | `Cc1nn(C)c(C)c1-c1nc2cc(S(=O)(=O)N3CCCC3)ccc2n1C` | -2.71 | -8.528 | 2.991 | 1.392 |
| 41 | `COc1ccc(C(=O)N2CC(=O)N(CC3CC3)CC(O)C2)cc1` (stereo unspecified) | 4.123 | -35.54 | - | 2.906 |
| 42 | `NS(=O)(=O)Cc1ccc(CNc2cncc(-n3cccn3)n2)cc1` | -686.2 | -1.501 | 4.351 | 1.195 |
| 43 | `[H][C@@]12CCN(Cc3cc(C)on3)C[C@@]1([H])O[C@@H](C)C2` | - | 1.13 | - | - |
| 44 | `CCc1nc(C2CCCN(C(=O)c3ccc(OC(C)C)nc3)C2)no1` (stereo unspecified) | 1.931 | -49.08 | -2.737 | 4.615 |
| 45 | `COCc1noc(CN2C[C@H](C3CC3)[C@@H](N(C)C)C2)n1` | 5.967 | 8.362 | 2.417 | -2.806 |
| 46 | `NC(=O)CN1CCCC1c1cncc(Oc2ccc(Cl)cc2)n1` (stereo unspecified) | -3.731 | -10.92 | 0.6275 | 2.101 |
| 47 | `COc1cccc(CCn2ccnc2-c2cn(C3CCNCC3)nn2)c1` | 15.6 | 17.83 | 3.785 | -20.39 |
| 48 | `CSc1ccccc1-n1ccnc1-c1cn(C2CCNCC2)nn1` | -7.034 | 8.654 | -3.453 | -1.356 |
| 49 | `N#CC1COCCN1C(=O)c1ccc2[nH]cnc2c1` (stereo unspecified) | 27.55 | 0.3396 | -0.9084 | 5.178 |
| 50 | `COc1ccc(Cl)cc1CN1CC(n2cccn2)C1` | 9.417 | 4.735 | -3.116 | -0.813 |
| 51 | `Cc1nn(C)c2nc(NCCN3CCCC(C(N)=O)C3)sc12` (stereo unspecified) | -11.97 | -4.043 | 2.177 | 1.09 |
| 52 | `COC1CCC(N(C)c2ccnc(N(C)C)n2)CC1` (stereo unspecified) | -4.833 | 2.575 | -4.156 | 0.8264 |
| 53 | `CCC(NC(=O)CCNC(=O)c1ccccc1F)c1cc(C)ccn1` (stereo unspecified) | -15.65 | -18.6 | -1.183 | 0.3764 |
| 54 | `Cc1nc(CN(C)Cc2cc3c(cc2OC(F)F)OCO3)cs1` | -2.951 | 6.464 | -1.503 | 1.527 |
| 55 | `c1ccc(Cc2noc(CN3CCCCC3Cn3cccn3)n2)cc1` (stereo unspecified) | -16 | 4.615 | 0.2921 | 4.258 |
| 56 | `c1ccc(CO[C@@H]2CN(Cc3nccs3)[C@@H]3COC[C@@H]32)nc1` | -1.8 | - | - | 0 |
| 57 | `CC(C)=CCN1CCNC(=O)C1CC(=O)N1CCc2sccc2C1` (stereo unspecified) | -8.394 | 15.48 | 0.1347 | 2.061 |
| 58 | `O=C(C[C@H]1[C@H]2CN(C(=O)Cc3ccccn3)C[C@@H]12)Nc1cccnc1` | 12.39 | - | 1.082 | 3.462 |
| 59 | `Cc1n[nH]c(C2CN(C(=O)c3ccon3)CCO2)n1` (stereo unspecified) | -20.6 | -12.23 | 3.311 | -0.2439 |
| 60 | `O=C(c1ccco1)N1CCC(n2nc(-c3ccco3)ccc2=O)CC1` | -2.879 | 14.01 | - | 0.7353 |
| 61 | `CNC(=O)c1cnc(/C=C/c2ccc(O)c(OC)c2)s1` | 14.63 | -0.911 | -9.276 | 10.32 |
| 62 | `O=S(=O)(N1CCCC1)N1CCCCC1CCc1ccccc1` (stereo unspecified) | -3.059 | -0.06127 | -1.253 | -3.509 |
| 63 | `O=C(O)C(F)(F)F.O=C(O)C(F)(F)F.O=C1COC2(CCN(Cc3cccs3)CC2)CN1c1cccnc1` | - | -5.636 | - | - |
| 64 | `Cc1cc(C(=O)NCc2cnn(C)c2C)nc(N2CCCCCC2)n1` | -6.724 | 9.622 | 0.07178 | 9.827 |
| 65 | `Cn1cnc(S(=O)(=O)Nc2cc(C(N)=O)ccc2Cl)c1` | -1.334 | -14.62 | -6.318 | 9.127 |
| 66 | `CCOCCN1CCN(c2ccc(CN(C)C)cn2)CC1` | -3.838 | 7.66 | -1.016 | 0.3802 |
| 67 | `Cn1ccnc1CN1CCN(Cc2ccncc2)[C@@H]2CS(=O)(=O)C[C@@H]21` | -9.9 | - | -6.735 | 8.642 |
| 68 | `COc1cccc(CN(C)Cc2ccc(C#N)cc2)c1OC` | -4.02 | 3.741 | -3.377 | -4.348 |

For reference, 6 entries once more:

compound,A,B,C,D
N#CC(NC(=O)CC1CCSCC1)c1cnn(-c2ccccc2)c1 (stereo unspecified),-10.1,-13.17,-1.154,0
Cc1ccc(S(C)(=O)=O)cc1C(=O)NS(=O)(=O)c1ccc(Cl)cc1,-8.783,-7.99,-2.861,1.86
NC(=O)C1CCN(C(=O)NCc2cccnc2OCC(F)(F)F)C1 (stereo unspecified),-6.42,-5.456,4.427,5.612
CC(C)=CCN1CCNC(=O)C1CC(=O)N1CCc2sccc2C1 (stereo unspecified),-8.394,15.48,0.1347,2.061
O=C(c1ccco1)N1CCC(n2nc(-c3ccco3)ccc2=O)CC1,-2.879,14.01,-,0.7353
CC(C)c1nc(CN2CCN(C(C)c3nc(C4CC4)no3)CC2)no1 (stereo unspecified),4.694,-5.456,-0.2924,3.394